The target of assay [1] is T1, AL2 (recombinant, pull-down) (Arabidopsis thaliana) (UniProt Q9SRM4).
T1 sequence: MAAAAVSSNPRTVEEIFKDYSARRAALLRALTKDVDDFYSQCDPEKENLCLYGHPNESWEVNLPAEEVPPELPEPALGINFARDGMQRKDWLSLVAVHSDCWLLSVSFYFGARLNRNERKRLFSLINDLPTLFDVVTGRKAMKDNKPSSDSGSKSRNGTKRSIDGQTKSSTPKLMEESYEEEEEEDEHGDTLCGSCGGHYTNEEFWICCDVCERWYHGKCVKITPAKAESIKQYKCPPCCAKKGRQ
Nature of the assay: pull-down.

The chains behind the UniProt entries cited, without tags or fusion partners. Where a name states a change or a piece, a line headed by the entry shows the natural chain unless it says otherwise.
UniProt Q9M9N3: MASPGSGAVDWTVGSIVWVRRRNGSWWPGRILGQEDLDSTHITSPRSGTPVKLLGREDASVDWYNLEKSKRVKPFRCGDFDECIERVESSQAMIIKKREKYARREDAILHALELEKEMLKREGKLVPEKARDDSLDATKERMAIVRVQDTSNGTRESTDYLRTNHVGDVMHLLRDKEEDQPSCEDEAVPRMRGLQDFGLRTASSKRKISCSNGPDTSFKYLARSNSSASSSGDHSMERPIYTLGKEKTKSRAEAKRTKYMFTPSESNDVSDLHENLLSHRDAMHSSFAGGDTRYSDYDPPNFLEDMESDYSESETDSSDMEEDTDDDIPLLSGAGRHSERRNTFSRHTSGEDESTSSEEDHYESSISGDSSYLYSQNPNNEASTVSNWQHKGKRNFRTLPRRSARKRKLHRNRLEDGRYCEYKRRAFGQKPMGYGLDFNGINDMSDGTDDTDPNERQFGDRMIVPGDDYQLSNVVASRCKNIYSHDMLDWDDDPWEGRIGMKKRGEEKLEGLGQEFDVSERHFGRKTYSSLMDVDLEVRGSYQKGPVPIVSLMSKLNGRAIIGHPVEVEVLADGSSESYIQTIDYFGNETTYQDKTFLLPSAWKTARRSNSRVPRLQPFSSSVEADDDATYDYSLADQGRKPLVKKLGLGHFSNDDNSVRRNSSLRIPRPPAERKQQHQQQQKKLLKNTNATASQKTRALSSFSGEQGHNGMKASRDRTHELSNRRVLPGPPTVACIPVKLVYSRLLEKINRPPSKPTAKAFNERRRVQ

For assay [2], the target named is T2, RING1A (recombinant, pull-down) (Arabidopsis thaliana, UniProt Q9FKW0 1-522).
T2 sequence (looked up): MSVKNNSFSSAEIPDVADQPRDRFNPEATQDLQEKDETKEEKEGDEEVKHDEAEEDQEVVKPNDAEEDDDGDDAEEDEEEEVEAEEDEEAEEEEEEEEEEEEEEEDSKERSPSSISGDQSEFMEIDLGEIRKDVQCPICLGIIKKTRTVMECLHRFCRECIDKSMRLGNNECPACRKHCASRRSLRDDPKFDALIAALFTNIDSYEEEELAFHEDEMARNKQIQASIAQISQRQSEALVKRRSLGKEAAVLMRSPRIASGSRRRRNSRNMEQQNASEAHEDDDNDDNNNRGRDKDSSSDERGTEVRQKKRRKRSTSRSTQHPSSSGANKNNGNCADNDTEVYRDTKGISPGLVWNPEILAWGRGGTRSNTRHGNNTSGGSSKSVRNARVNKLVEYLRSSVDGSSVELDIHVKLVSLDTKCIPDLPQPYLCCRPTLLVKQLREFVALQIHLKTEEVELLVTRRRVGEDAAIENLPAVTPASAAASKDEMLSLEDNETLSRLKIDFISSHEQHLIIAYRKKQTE
In words: pull-down.

Results are given in words; binding and its absence hold for the method and conditions named. Binding calls can cover weak binding; strength is not graded here.

Binding data for two substances are collected here from publication doi:10.1101/2024.09.12.612777 (bioRxiv, 2024).

Take “PWWP1 (PEAT complex subunit) (from UniProt Q9M9N3)”: in assay [1], the binding entry is reported as “binds”.
With “BMI1B (recombinant, pull-down) (Arabidopsis thaliana)”, the binding result in assay [2] and in assay [1] was “binds” throughout.
